# Assay results published in article PMC8610252.
# By UniProt entry, the sequences of proteins in these tests, tags left out. Residues count along the entry.
# UniProt G3XD89, residues 3-670: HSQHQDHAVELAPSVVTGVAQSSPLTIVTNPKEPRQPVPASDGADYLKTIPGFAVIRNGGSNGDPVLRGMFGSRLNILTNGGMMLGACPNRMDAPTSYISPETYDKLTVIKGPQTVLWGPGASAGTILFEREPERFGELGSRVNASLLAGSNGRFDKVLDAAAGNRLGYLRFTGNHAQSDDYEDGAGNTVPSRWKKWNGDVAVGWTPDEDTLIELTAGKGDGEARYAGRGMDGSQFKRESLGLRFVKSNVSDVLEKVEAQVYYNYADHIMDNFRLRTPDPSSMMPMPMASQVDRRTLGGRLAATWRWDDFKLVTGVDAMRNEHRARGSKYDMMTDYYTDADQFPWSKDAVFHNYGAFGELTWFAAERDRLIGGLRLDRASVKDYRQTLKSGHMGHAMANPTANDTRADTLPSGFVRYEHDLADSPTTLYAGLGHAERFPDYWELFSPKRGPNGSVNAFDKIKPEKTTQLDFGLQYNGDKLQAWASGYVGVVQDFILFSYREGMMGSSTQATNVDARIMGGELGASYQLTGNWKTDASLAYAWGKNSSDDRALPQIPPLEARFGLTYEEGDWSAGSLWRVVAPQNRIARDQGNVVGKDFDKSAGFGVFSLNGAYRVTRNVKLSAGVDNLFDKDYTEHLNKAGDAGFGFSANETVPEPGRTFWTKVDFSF
# UniProt P00282, residues 21-148: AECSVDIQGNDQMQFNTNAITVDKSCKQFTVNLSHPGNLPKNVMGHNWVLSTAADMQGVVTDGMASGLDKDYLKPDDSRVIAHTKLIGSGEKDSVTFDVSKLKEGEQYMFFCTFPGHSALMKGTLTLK
# Results are given in words; binding and its absence hold for the method and conditions named.
# Target: Pseudomonas aeruginosa OprC (PA3790), wild type (P. aeruginosa PAO1) (UniProt G3XD89)
# Assay: SEC; OM-purified, functional OprC with azurin; no conditions given (told only in the discussion, no figure)
substance,measurement,value
azurin (from UniProt P00282 21-148),binding,no binding
